pEC50, pIC50: −log10 of the molar value. The match of structure and compound is tentative.
What was measured:
[1] = tested on: IRF3 pathway in THP1-Dual cells; assay: THP1-Dual reporter gene activity assay (Lucia luciferase, QUANTI-Luc); conditions: 30 min treatment, 18 hours incubation, tested form: ammonium salt
[2] = tested on: IRF3 pathway in RAW-Dual cells (RAW264.7); assay: Raw-Dual reporter gene activity assay (luciferase, QUANTI-Luc); conditions: read-out: Raw, EC50, 30 min treatment, 18-24 hours incubation, tested form: ammonium salt
[3] = biological target: human STING protein (C-terminal, wild-type, aa 140-379) (Homo sapiens (Human), UniProt Q86WV6); assay: STING in vitro binding test (fluorescence polarization, FP assay); conditions: read-out: FP affinity test IC50; competition with 30 nM fluorescein-labeled c-di-GMP, 10 μM human STING protein; tested form: ammonium salt

Sequences of proteins named here, by UniProt entry; tags and fusion partners are left off. Residues count along the entry.
UniProt Q86WV6, 140-379 limits assumed: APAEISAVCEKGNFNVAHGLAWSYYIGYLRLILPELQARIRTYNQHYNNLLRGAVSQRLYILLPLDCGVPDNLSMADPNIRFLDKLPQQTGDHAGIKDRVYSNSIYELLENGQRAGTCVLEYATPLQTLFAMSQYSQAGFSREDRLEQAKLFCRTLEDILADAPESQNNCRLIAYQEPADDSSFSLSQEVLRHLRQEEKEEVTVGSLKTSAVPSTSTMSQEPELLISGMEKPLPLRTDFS

SMILES | pEC50 [1] | pEC50 [2] | pIC50 [3]
[BH3-][P+]1(O)OC[C@H]2O[C@@H](n3cnc4c(N)ncnc43)[C@H](F)[C@@H]2OP(=O)(S)OC[C@H]2O[C@@H](n3cnc4c(N)ncnc43)[C@H](F)[C@@H]2O1 (single isomer, unassigned) [Compound 4C] | 4.99 | 5.20 | 5.84
[BH3-][P+]1(O)OC[C@H]2O[C@@H](n3cnc4c(N)ncnc43)[C@H](F)[C@@H]2OP(=O)(S)OC[C@H]2O[C@@H](n3cnc4c(N)ncnc43)[C@H](F)[C@@H]2O1 (single isomer, unassigned) [Compound 4B] | 5.43 | 5.59 | 5.65
[BH3-][P+]1(O)OC[C@H]2O[C@@H](n3cnc4c(N)ncnc43)[C@H](F)[C@@H]2OP(=O)(S)OC[C@H]2O[C@@H](n3cnc4c(N)ncnc43)[C@H](F)[C@@H]2O1 (single isomer, unassigned) [Compound 4A] | 5.51 |  | 5.56
[BH3-][P+]1(O)OC[C@H]2O[C@@H](n3cnc4c(N)ncnc43)[C@H](F)[C@@H]2OP(=O)(S)OC[C@H]2O[C@@H](n3cnc4c(N)ncnc43)[C@H](F)[C@@H]2O1 (single isomer, unassigned) [Compound 4D] | 4.32 | 4.68 | 5.54

Reference: patent publication US11401295B2, “Cyclic dinucleotide compound and uses thereof” (SHANGHAI JEMINCARE PHARMACEUTICALS CO., LTD., priority 2018, dated 2022)
